For this test, the target named is recombinant Aβ1-42. The experiment in a line: indirect ELISA, plates coated with recombinant Aβ1-42. Background: An ELISA detects its analyte on a solid surface through an enzyme-linked reagent.

These are yes or no findings as the source states them, for the method shown. Some entries that bind do so weakly or less than the wild type.

B1: mAb158 IgG (antibody, V domains shown)
VH: EVKLMESGGGLVQPGGSRKLSCAASGFTFSSFGMHWVRQAPEKGLEWVAYISSGSSTIYYGDTVKGRFTISRDNPKNTLFLQMTSLRSEDTAMYYCAREGGYYYGRSYYTMDYWGQGTSVTVSS
VL: DIVMTQAPLSLPVSLGDQASISCRSSQSIVHSNGNTYLEWYLQKPGQSPKLLIYKVSNRFSGVPDRFSGSGSGTDFTLKISRVEAEDLGIYYCFQGSHVPPTFGGGTKLEIKR
Consider B1, for which the binding result is “binds”.

Values taken from patent publication US20240141027A1.
